Measured values from the supplement of paper PMC11546906.
This is one part of the list. Repeats in this data set agree poorly, so a single value says little.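 FDA-approved drugs were each paired with colistin at one-eighth its MIC and screened against a multidrug-resistant, mcr-1-positive clinical E. coli isolate, with OD600 read after 24 h. Drug-free bacteria served as growth control, plain broth as blank. Combinations were active if OD600 dropped below 0.2.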

system: Escherichia coli 42 (mcr-1-positive clinical isolate); assay: OD600 after 24 h growth with compound plus colistin (absorbance units (OD600)); higher = more bacterial growth (less inhibition); conditions: first compound 25 µM; colistin concentration 0.5 ug/mL; incubation time 24 h; 37 °C

OD600, inactive:
CN/C(=N\CCSCc1nc[nH]c1C)NC#N [Cimetidine] + CCC(C)CCCC(=O)N[C@@H](CCN)C(=O)N[C@H](C(=O)N[C@@H](CCN)C(=O)N[C@H]1CCNC(=O)[C@H]([C@@H](C)O)NC(=O)[C@H](CCN)NC(=O)[C@H](CCN)NC(=O)[C@H](CC(C)C)NC(=O)[C@@H](CC(C)C)NC(=O)[C@H](CCN)NC1=O)[C@@H](C)O [colistin] 1.09
NC(=O)N1c2ccccc2CC(=O)c2ccccc21 [Oxcarbazepine] + CCC(C)CCCC(=O)N[C@@H](CCN)C(=O)N[C@H](C(=O)N[C@@H](CCN)C(=O)N[C@H]1CCNC(=O)[C@H]([C@@H](C)O)NC(=O)[C@H](CCN)NC(=O)[C@H](CCN)NC(=O)[C@H](CC(C)C)NC(=O)[C@@H](CC(C)C)NC(=O)[C@H](CCN)NC1=O)[C@@H](C)O [colistin] 1.05
CC1(C)[C@H](C(=O)O)N2C(=O)C[C@H]2S1(=O)=O [Sulbactam] + CCC(C)CCCC(=O)N[C@@H](CCN)C(=O)N[C@H](C(=O)N[C@@H](CCN)C(=O)N[C@H]1CCNC(=O)[C@H]([C@@H](C)O)NC(=O)[C@H](CCN)NC(=O)[C@H](CCN)NC(=O)[C@H](CC(C)C)NC(=O)[C@@H](CC(C)C)NC(=O)[C@H](CCN)NC1=O)[C@@H](C)O [colistin] 1.08
CC1(C)O[C@@H]2C[C@H]3[C@@H]4C[C@H](F)C5=CC(=O)C=C[C@]5(C)[C@@]4(F)[C@@H](O)C[C@]3(C)[C@]2(C(=O)CO)O1 [Fluocinolone (Acetonide)] + CCC(C)CCCC(=O)N[C@@H](CCN)C(=O)N[C@H](C(=O)N[C@@H](CCN)C(=O)N[C@H]1CCNC(=O)[C@H]([C@@H](C)O)NC(=O)[C@H](CCN)NC(=O)[C@H](CCN)NC(=O)[C@H](CC(C)C)NC(=O)[C@@H](CC(C)C)NC(=O)[C@H](CCN)NC1=O)[C@@H](C)O [colistin] 0.811
